Reference: patent US20220275067A1 (PROTHENA BIOSCIENCES, published 2022)
Where a chain is given by its changes, count along the chain named. Results are given in words; binding and its absence hold for the method and conditions named. Some binding calls cover weakened binding; strength is not graded here. Blank lines part the entries; values can stand above or below the binder they belong to.

Amino acid sequences for entries named in this document (tags omitted). A change or cut given only in a name is not applied to a line headed by its entry. Chains listed by the source or under a name are the forms on record and can include a tag or linker.
tau in samples from brains of Alzheimer's disease patients (P10636, form named): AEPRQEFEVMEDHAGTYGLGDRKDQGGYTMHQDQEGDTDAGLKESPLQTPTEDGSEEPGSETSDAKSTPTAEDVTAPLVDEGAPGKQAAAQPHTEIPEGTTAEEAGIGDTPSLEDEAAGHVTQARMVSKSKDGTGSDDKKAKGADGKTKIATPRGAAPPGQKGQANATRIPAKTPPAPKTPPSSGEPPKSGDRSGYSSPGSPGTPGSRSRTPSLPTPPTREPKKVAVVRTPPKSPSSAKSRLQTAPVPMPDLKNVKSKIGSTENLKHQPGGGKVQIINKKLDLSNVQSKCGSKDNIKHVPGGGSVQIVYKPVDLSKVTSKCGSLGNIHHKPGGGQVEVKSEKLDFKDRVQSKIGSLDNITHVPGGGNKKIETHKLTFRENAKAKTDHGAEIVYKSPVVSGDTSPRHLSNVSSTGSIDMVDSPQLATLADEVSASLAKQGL

Assays:
[1] = target: T1, adjacent tau microarray peptides with the consensus motif EIVYKSP (human); test: peptide microarray of tau 15-mers
T1 sequence (peptide): EIVYKSP

[2] = target: T2, adjacent tau microarray peptides with the consensus motif QIVYKP (human); test: peptide microarray of tau 15-mers
T2 sequence (peptide): QIVYKP

[3] = target: tau in samples from brains of Alzheimer's disease patients (human) (UniProt P10636); test: Western blot of soluble and sarkosyl-insoluble brain fractions, antibody at 0.5 ug/mL
[4] = target: tau in samples from brains of Alzheimer's disease patients (human) (UniProt P10636); test: Western blot
[5] = target: tau in samples from brains of Alzheimer's disease patients (human) (UniProt P10636); test: Immunoprecipitation from the sarkosyl-insoluble brain fraction, goat anti-mouse magnetic beads, SDS-PAGE, blot with polyclonal K9JA; lanes alternate normal / AD extract (p-1045)
[6] = target: tau in normal control human brain sections (human) (UniProt P10636); test: immunohistochemistry on fresh-frozen human brain sections
[7] = target: tau in samples from brains of Alzheimer's disease patients (human) (UniProt P10636); test: as above
[8] = target: tau in samples from brains of Alzheimer's disease patients (human) (UniProt P10636); test: Western blot: RIPA-soluble and sarkosyl-insoluble frontal cortex fractions (1 HC, 4 AD) on SDS-PAGE, probed with the antibody at 0.5 ug/mL, goat anti-mouse IRDye-800
[9] = target: tau in samples from brains of Alzheimer's disease patients (human) (UniProt P10636); test: immunoprecipitation from the sarkosyl-insoluble fraction, blot with K9JA
[10] = target: tau in samples from brains of Alzheimer's disease patients (human) (UniProt P10636); test: Immunohistochemistry on 10 um fresh-frozen human brain sections, DAB detection (BOND Polymer Refine), hematoxylin counterstain
[11] = target: T3, adjacent tau microarray peptides with the consensus motif EIVYKS (human); test: peptide microarray of tau 15-mers
T3 sequence (peptide): EIVYKS

[12] = target: tau in normal control human brain sections (human) (UniProt P10636); test: Western blot: RIPA-soluble and sarkosyl-insoluble frontal cortex fractions (1 HC, 4 AD) on SDS-PAGE, probed with the antibody at 0.5 ug/mL, goat anti-mouse IRDye-800
[13] = target: tau in normal control human brain sections (human) (UniProt P10636); test: Immunohistochemistry on 10 um fresh-frozen human brain sections, DAB detection (BOND Polymer Refine), hematoxylin counterstain

binding [1]: binds
binding [2]: binds
B1: mouse 9F5 antibody (antibody, mouse IgG1, V domains shown)
VH: EVQLQQSGAELVRPGASVKLSCTASGFNIKDDYMNWVKQRPERGLEWIGWIDPENGDTEYASKFQGKATMTADTSSNTAYLQFSSLTSEDTAVYYCTTSNGWGQGTLVTVST
VL: DIVMTQAAFSNPVTLGTSASISCRSSKSLLHSNGITYLYWYLQKPGQSPQLLIYQMSNLASGVPDRFSSSGSGTDFTLRISRVEAEDVGVYYCAQNLELPLTFGAGTKLELK
notes: also called m9F5; murine 9F5

binding [3]: binds
binding [4]: binds
binding [1]: binds
binding [2]: binds
binding [5]: binds
binding [6]: binds
binding [7]: binds
binding [8]: binds
binding [9]: binds
B2: mouse 17C12 antibody (antibody, mouse IgG2a, V domains shown)
VH: B1 VH with E1K, V2I, G26A, E59K, F83L, T112A
VL: DVVMTQTPLTLSVTIGQPASISCTSSQSLLHSNRKTYLHWLLQRPGQSPKLLIYLVSKLESGVPDRFSGSGSGTDFTLKISRVEAEDLGVYYCLQTTHFPRTFGGGTKLEIK
notes: also called m17C12
binding [10]: binds

binding [11]: binds
binding [2]: binds
B3: mouse 2D11 antibody (antibody, mouse IgG2a, V domains shown)
VH: B1 VH
VL: B1 VL

binding [1]: binds
binding [2]: binds
B4: mouse 10C12 antibody (antibody, mouse IgG2a, V domains shown)
VH: B1 VH
VL: B1 VL
notes: also called m10C12

binding [3]: binds
binding [4]: binds
binding [5]: binds
binding [6]: binds
binding [7]: binds
binding [8]: binds
binding [9]: binds
B5: mouse 12C4 antibody (antibody, mouse IgG2a, V domains shown)
VH: B1 VH with K38R, E59A, T91S, T112A
VL: B1 VL
notes: also called m12C4
binding [10]: binds

binding [3]: binds
binding [4]: binds
binding [6]: binds
binding [7]: binds
binding [12]: binds
binding [8]: binds
binding [9]: binds
B6: mouse 14H3 antibody (antibody, mouse IgG2a, V domains shown)
VH: QVTLKESGPGILQPSQTLSLTCSFSGFSLSTYGMGVGWIRQPSGKGLEWLANIWWDDIKYYNAALKSRLTISKDTSKNQVFLKIASVDTADTATYYCARNVDYWGQGTTLTVSS
VL: DVVMTQTPLSLPVSLGDQASISCRSSQSLVHSNGNTFLHWYLQKPGQSPKLLIYKVSNRFSGVPDRFSGSGSGTDFTLKISRVEAEDLGVYFCSQSTLVPWTFGGGTKLEIK
notes: also called m14H3
binding [13]: binds
binding [10]: binds
